## Primary screen of a compound library

Protein sequences, listed by entry. Tags and fused reporters are not part of them. Residues count along the entry.
UniProt P9WNZ1, whole entry: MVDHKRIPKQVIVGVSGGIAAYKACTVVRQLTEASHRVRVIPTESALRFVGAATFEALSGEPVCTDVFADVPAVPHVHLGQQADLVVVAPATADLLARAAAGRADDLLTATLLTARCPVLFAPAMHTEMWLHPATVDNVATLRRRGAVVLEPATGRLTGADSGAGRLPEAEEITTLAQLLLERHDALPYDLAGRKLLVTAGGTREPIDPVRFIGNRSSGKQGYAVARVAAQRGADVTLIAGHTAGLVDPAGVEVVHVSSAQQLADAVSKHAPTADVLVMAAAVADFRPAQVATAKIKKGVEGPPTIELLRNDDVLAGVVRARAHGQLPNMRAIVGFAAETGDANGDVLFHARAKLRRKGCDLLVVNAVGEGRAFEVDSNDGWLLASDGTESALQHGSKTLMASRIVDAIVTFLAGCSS
UniProt Q8IDJ8, 1-583: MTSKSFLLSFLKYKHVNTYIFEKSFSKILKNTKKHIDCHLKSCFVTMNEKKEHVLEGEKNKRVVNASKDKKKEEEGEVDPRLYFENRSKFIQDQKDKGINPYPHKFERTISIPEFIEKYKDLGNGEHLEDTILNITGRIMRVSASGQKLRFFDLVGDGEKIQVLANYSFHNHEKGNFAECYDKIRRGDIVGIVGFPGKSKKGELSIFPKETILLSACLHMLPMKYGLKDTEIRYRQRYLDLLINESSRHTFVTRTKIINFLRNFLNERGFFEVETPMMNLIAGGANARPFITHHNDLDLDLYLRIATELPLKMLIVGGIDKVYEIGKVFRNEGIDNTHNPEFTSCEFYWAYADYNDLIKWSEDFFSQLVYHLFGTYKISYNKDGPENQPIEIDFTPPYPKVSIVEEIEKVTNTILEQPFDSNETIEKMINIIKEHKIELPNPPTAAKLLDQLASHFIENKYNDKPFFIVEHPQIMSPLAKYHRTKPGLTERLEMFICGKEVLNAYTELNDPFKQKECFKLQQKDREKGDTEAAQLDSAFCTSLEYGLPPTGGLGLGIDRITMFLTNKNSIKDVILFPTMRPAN
UniProt P9WFT3, whole entry: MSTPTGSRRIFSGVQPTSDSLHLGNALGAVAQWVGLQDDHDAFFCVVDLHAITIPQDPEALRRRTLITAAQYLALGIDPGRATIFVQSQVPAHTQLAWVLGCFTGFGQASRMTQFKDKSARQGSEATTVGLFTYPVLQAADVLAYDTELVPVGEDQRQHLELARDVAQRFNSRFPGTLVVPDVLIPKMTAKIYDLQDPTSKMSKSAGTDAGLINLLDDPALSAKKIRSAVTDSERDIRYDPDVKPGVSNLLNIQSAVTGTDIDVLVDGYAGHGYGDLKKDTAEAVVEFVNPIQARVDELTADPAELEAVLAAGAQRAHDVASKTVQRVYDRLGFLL
UniProt I6X8D2, whole entry: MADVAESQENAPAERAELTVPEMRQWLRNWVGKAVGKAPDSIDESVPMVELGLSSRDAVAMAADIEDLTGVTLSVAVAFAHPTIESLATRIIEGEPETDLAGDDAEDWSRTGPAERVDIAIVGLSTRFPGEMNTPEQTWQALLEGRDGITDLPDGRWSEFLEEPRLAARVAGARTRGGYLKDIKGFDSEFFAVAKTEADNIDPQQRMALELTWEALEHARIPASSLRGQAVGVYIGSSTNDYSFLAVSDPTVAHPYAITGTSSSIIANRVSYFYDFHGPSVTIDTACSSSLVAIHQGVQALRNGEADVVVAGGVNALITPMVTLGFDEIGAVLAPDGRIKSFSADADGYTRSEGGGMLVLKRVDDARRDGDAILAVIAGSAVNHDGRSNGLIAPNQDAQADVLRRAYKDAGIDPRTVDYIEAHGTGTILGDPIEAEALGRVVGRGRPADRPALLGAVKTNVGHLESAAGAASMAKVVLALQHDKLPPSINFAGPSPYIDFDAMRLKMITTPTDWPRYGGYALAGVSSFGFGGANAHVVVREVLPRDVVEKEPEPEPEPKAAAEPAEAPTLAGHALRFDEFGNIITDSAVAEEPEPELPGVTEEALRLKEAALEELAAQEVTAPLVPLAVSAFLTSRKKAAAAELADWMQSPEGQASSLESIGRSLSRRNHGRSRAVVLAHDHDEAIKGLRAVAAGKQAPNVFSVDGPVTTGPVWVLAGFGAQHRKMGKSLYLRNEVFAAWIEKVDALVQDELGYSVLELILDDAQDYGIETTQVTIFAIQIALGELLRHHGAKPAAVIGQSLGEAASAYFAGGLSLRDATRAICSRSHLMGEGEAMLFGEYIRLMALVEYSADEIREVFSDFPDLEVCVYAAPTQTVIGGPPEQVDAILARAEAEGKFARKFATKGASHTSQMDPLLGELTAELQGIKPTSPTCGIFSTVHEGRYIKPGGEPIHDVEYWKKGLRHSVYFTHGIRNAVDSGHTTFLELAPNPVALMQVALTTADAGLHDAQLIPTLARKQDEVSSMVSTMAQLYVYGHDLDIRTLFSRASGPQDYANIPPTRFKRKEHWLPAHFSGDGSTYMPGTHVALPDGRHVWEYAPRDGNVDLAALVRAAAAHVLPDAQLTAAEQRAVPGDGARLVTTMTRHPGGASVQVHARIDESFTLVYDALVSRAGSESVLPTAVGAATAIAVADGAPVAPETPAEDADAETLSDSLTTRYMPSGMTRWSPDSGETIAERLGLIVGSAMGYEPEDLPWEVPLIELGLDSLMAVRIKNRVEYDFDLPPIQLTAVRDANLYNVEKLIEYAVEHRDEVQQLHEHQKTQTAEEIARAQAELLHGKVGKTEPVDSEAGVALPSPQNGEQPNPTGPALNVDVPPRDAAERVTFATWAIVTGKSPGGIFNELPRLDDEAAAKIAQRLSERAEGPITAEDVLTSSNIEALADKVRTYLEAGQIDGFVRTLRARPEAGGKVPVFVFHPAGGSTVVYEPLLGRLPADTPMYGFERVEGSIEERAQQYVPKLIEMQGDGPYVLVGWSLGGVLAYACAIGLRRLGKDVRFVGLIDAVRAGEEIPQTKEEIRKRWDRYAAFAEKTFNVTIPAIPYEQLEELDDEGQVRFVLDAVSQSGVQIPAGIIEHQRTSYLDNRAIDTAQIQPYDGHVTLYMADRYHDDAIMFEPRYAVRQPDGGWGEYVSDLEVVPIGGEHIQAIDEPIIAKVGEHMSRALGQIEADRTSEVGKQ

The values are deposited in ChEMBL (CHEMBL3988442, “University of Dundee, Small-Polar-MMV Screening Library” (2021)).

A: 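Coenzyme A biosynthesis protein CoaBC, Mycobacterium tuberculosis (UniProt P9WNZ1). Enzyme assay of CoaBC with a phosphate dye (Biomol Green) read at 650 nm. Compounds at 30 µM. Direction is inferred from only a few compounds that gave an IC50; most scored high, so higher reads as stronger inhibition. Most strong results did not repeat in a second test. About 67,000 compounds were tested under these conditions; 0.06% (about 40) showed 50% or more at least once.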
B: 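Lysine-tRNA ligase, Plasmodium falciparum 3D7 (UniProt Q8IDJ8). Enzyme assay of the cytosolic lysyl-tRNA synthetase in 384-well plates, read by luminescence. Concentration: 30 µM. Higher reads as stronger inhibition, judged from the few compounds that gave an IC50. Size under these conditions: about 69,000 compounds, about 49 of them at 50% or above in at least one test.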
C: 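Assay of Toxoplasma gondii numbers, read through their beta-galactosidase reporter with a colour substrate. Compounds at 10 µM. The record gives no direction; the compounds picked for IC50 retests had high values, so higher reads as fewer parasites. Of about 67,000 compounds tested this way, about 260 (0.38%) reached 50% or more in at least one test.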
D: 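Tryptophan-tRNA ligase, Mycobacterium tuberculosis (UniProt P9WFT3). Enzyme assay of tryptophanyl-tRNA synthetase; the read-out is not stated. Concentration: 10 µM. Direction is not recorded; retested compounds ran higher, which suggests that high means inhibition. Of about 65,000 compounds tested this way, about 64 (0.098%) reached 50% or more in at least one test.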
E: 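Polyketide synthase Pks13, Mycobacterium tuberculosis (UniProt I6X8D2). Enzyme assay of the thioesterase domain of polyketide synthase 13; the read-out is not stated. Tested at 30 µM. Higher reads as stronger inhibition (inferred from which compounds were picked for retests). About 67,000 compounds were tested under these conditions; 0.46% (about 300) showed 50% or more at least once.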

Values are the deposited “Percent Effect”, in %.
How 0% and 100% were set is not recorded. Most values in the screen are low, and negative values occur.
This is an unselected part of the compounds tested.
A dash means the value is not listed here; it may have been measured.

structure,A,B,C,D,E
CCN1CCN(C)C(=O)C12CCN(Cc1ccsc1)CC2.O=C(O)C(F)(F)F,-,-,-8.891,-,-
COc1cc(C)nc(N2CCN(C(=O)CCc3cscn3)CC2)n1,-3.198,-0.7863,-2.885,-5.495,-15.28
Cc1noc([C@@H]2C[C@H](NC(=O)Nc3ccccc3)CN2C)n1,-0.2208,0.6305,-4.359,-0.2276,13.75
OC(CN1CCC(c2ccn[nH]2)CC1)c1ccccc1F (centres undefined),15.79,1.246,-7.804,-5.267,-2.022
Cc1ccc(N2CCC3(CCN(Cc4csc(C)n4)C3=O)C2)nn1 (centres undefined),1.98,4.761,-4.238,-,-13.29
Cc1cnc(C(=O)N2C[C@@H]3CN(CC4CCCC4)CCO[C@@H]3C2)cn1,-0.9009,-9.261,-,8.725,-7.17
[H][C@@]12C[C@H](C(=O)NC(C)C)[C@@]([H])(CN(C(=O)NC(C)C)C1)O2,-,-,23.26,-,-
CCOC(=O)NCCC(=O)NC(C)(C)c1ccc2c(c1)OCCO2,5.584,2.8,0.2213,2.518,-13.16
CC(C)CCC(C)NC(=O)Nc1ccccn1 (centres undefined),11.74,3.267,1.935,-3.757,-44.3
CCN(Cc1nc2c(cnn2C)c(=O)[nH]1)c1cccc(C)c1,3.69,-0.4911,4.142,1.661,-12.36
c1ccc(CN2CCC3(CC2)CC(Nc2nccs2)CO3)nc1 (centres undefined),3.25,3.471,-,-5.629,-14.83
O=C1NCCCc2[nH]c(Cc3cccc(Cl)c3)nc21,-6.303,2.611,8.169,-2.916,-27.88
CN(Cc1ccco1)Cc1ccccc1CNC(=O)c1cnc[nH]1,2.564,2.93,-2.276,2.557,15.82
COCCC(=O)N1CCCC2(CCC(=O)N2CCOC)CC1 (centres undefined),1.451,3.561,2.112,-3.588,-1.711
Cc1cc(C(=O)N2CCC3(CC2)C(=O)N(C)CCN3CC2CC2)c(C)o1.O=C(O)C(F)(F)F,-,-,17.42,-,-
Cc1cccnc1NCCNC(=O)C1CCN(Cc2ccco2)CC1,-2.218,-1.879,-1.674,0.8073,4.312
Cc1cccc(CN2CCC23CCCNC3)n1 (centres undefined),5.277,3.863,-10.24,-7.122,-40.19
COCC(=O)N1CC[C@@H](N2CCOCC2)[C@@H]1Cc1ccccc1,-2.445,2.612,-5.588,-0.2876,-13.78
Cn1cc(C2=CCN(CCCOc3ccc(C(N)=O)cc3)CC2)cn1,-,0.6387,9.621,-8.566,-34.71
Cc1ccnc(CC(C)N(C)c2cc(CN)nc(C)n2)c1 (centres undefined),7.661,6.503,-9.692,-0.1039,0.0155
CCO[C@@H]1CCN(C(=O)c2cscn2)[C@@H]1Cc1cnn(C)c1,-3.109,1.537,-0.6101,-2.643,-24.03
COc1ccc(-c2ccc(C(=O)NS(C)(=O)=O)c(F)c2)cc1,0.4902,6.57,1.218,4.444,4.983
CN(C)C[C@H]1OC[C@@H]2CCN(C(=O)Cc3cccs3)C[C@@H]21,-14.05,4.221,-,-5.23,-20.89
Cn1cnnc1C1CCCN(C(=O)c2cc(-c3ccccc3)on2)C1 (centres undefined),2.913,-2.353,-6.845,3.6,5.128
O=C(O)C(F)(F)F.O=C(c1c[nH]cn1)N1CCC(F)(F)C2(CCN(c3ncccn3)C2)C1 (centres undefined),-,-,-1.806,-,-
O=C(NCCN1CCCC1)c1cc2c(s1)CCN2C(=O)c1ccccc1,-9.741,4.482,-2.632,-7.535,-28.73
O=C(Cc1csc(-c2ccco2)n1)N1CCSCC1,1.908,-0.5314,-7.154,-4.089,-30.74
O=C(Nc1ccccc1-c1cccs1)N1CCN(CC(F)F)CC1,-,-1.169,-6.406,-7.121,-31.48
CCOc1ncccc1CNC(=O)NCC(O)c1ccccc1OC (centres undefined),1.05,-0.5393,21.24,-10.66,-12.02
O=C(O)C(F)(F)F.[H][C@@]12COC[C@]1(CNS(C)(=O)=O)CN(Cc1cc(C)on1)C2,-,-,-1.49,-,-
CN(C)c1ncc(-c2cc(C(=O)NC(C)(C)CO)n(CC3CC3)c2)cn1,-0.9223,-0.4786,-3.711,1.357,-5.778
Cl.O=C1N(Cc2cccc(Cl)c2)CCC12CCCNC2 (centres undefined),-,-,8.617,-,-
CC(=O)N1CCN(C(=O)Nc2ccccc2Cl)[C@H]2CS(=O)(=O)C[C@H]21,-0.8373,0.4581,-,0.8542,-27.57
N#Cc1ccccc1CN(CC(N)=O)C1CCCC1,4.435,2.935,1.321,-4.722,-9.404
Cc1nc2sccn2c1CNc1cc(C(=O)O)ccc1F,0.3984,7.754,13.85,-0.09551,-8.082
Cc1nc(C)n(CC2CCCN(CCCc3ccccc3)C2)n1 (centres undefined),7.329,-0.7714,-8.095,9.702,-9.361
Cc1nn(-c2ccccc2)nc1C(=O)NCC(c1ccsc1)N(C)C (centres undefined),14.15,-2.123,-1.523,4.224,-26.13
COCCOc1ccc(S(=O)(=O)Nc2cccc(O)c2F)cc1C,3.03,4.227,13.68,1.481,-35.82
O=S(=O)(NCc1ccccc1)Nc1cccc(Cn2cncn2)c1,-1.082,6.183,0,4.509,-3.555
CCOc1cccc(C(C)NCc2ccc(OC)c(OC)c2OC)c1 (centres undefined),-25.89,4.36,-2.863,6.927,-18.46

For reference, 5 entries once more:

For Cc1ccc(N2CCC3(CCN(Cc4csc(C)n4)C3=O)C2)nn1 (centres undefined) the result was A: 1.98%; B: 4.761%; C: -4.238%; E: -13.29%.
For O=S(=O)(NCc1ccccc1)Nc1cccc(Cn2cncn2)c1 the result was A: -1.082%; B: 6.183%; C: 0%; D: 4.509%; E: -3.555%.
For COc1ccc(-c2ccc(C(=O)NS(C)(=O)=O)c(F)c2)cc1 the result was A: 0.4902%; B: 6.57%; C: 1.218%; D: 4.444%; E: 4.983%.
For CCN1CCN(C)C(=O)C12CCN(Cc1ccsc1)CC2.O=C(O)C(F)(F)F the result was C: -8.891%.
For Cc1cc(C(=O)N2CCC3(CC2)C(=O)N(C)CCN3CC2CC2)c(C)o1.O=C(O)C(F)(F)F the result was C: 17.42%.